Here are results for 57 compounds from PubChem BioAssay AID2685 (National Center for Advancing Translational Sciences (NCATS), 2010).

This is one part of the list. Shown are side measurements of this screen, not its main read-out; they come without a call. Compounds called inactive in the main read-out are mostly missing here. The note in brackets gives the kind of curve behind each potency; many fits are weak.

This assay in a line: qHTS Assay for Lipid Storage Modulators in Drosophila S3 Cells.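 On cell number change: cells counted by Cell Tracker Red CMTPX staining in the red channel.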 The following applies: BODIPY lipid droplet fluorescence, 18-24 h; for cell number change: measured here: cell count max response, cells fed with added oleic acid. Put shortly:
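Drosophila S3 cells loaded with oleic acid (400 uM, as added) and compounds at several concentrations; lipid droplets imaged by 488-nm laser-scanning cytometry, 500–530 nm intensity and object ratio to cell channel. Percent activity normalized to 20 uM Triacsin C.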

Where [1] appears, read: measured here: lipid fluorescence (Fed channel) AC50, cells fed with added oleic acid.
Setting [2] is: measured here: cell number channel AC50, cells fed with added oleic acid.

With `CCN(CC)CCCN1C(=O)c2oc3ccccc3c(=O)c2C1c1cccnc1` (centres undefined), the cell number change is -0.847%. Under setting [1], the AC50 was 0.651 µM [falling, single point].
Turning to `Cc1cc(C(=O)N2CCCCCC2)cs1`, the cell number change was -35.6%. Also, the AC50 under setting [2] is 25.9 µM [falling, single point]. In addition, the AC50 under setting [1] was 16.4 µM [falling, single point].
On to `Cc1ccc(CN(C(=O)c2csnn2)C(C(=O)NC2CCCC2)c2ccccn2)cc1` (centres undefined), for which the cell number change turned out to be 18.7%. Besides, the AC50 under setting [1] was 1.46 µM [falling, partial curve].
As to `COc1ccc(OC)c(CN2CCN(C(=O)c3cccc4ccccc34)CC2)c1`, the cell number change came to 13.8%. Also, the AC50 under setting [1] is 0.13 µM [rising, full curve, poor fit].
For `COC(=O)c1nc(C(=O)OC)c(C(=O)OC)nc1C(=O)OC`, the cell number change was -20.6%.
On to `Cc1ccc(OCc2nnc(NC(=O)OCC(C)C)s2)cc1`, for which the AC50 under setting [1] was 20.6 µM [falling, partial curve].
In the case of `O=C1[C@@H]2C(c3ccccc3Cl)=NO[C@@H]2C(=O)N1Cc1ccccc1`, the cell number change is -67.5%. Besides, under setting [2], the AC50 is 20.6 µM [falling, single point].
In the case of `O=C(NCC(c1ccco1)N1CCN(c2ccccc2)CC1)C(=O)NC1CCCCC1` (centres undefined), the cell number change was 28.1%. Further, under setting [2], the AC50 is 0.517 µM [rising, full curve, poor fit]. For the same compound, the AC50 under setting [1] is 0.517 µM [rising, full curve].
For the compound `COC(=O)c1[nH]c2cc(OC)c(OC)cc2c1NC(=O)Oc1ccccc1`, the cell number change is -20.8%. Besides, under setting [1], the AC50 is 29.1 µM [falling, single point].
Take `CN(C(=O)COC(=O)C1CCN(S(=O)(=O)c2cccs2)CC1)C1CCS(=O)(=O)C1` (centres undefined): the cell number change is -76.3%. Moreover, the AC50 under setting [2] is 32.6 µM [falling, partial curve, poor fit].
Consider `C/C=C(/C)C(=O)O[C@@H]1c2cc3c(c4c2[C@@]2(CO4)C(=O)C(OC)=C(OC)C=C2C[C@@H](C)[C@H]1C)OCO3`, for which the cell number change was -42.7%. The AC50 under setting [2] is 14.6 µM [falling, partial curve, poor fit]. The AC50 under setting [1] is 13 µM [falling, partial curve].
For the compound `Cc1ccc(N=Cc2cc(Cl)cc(Cl)c2O)nc1`, the cell number change was -20.1%. In addition, the AC50 under setting [2] was 3.26 µM [falling, single point].
For the compound `CC1CCCCC12NC(=O)N(CC(=O)N1CCc3ccccc31)C2=O` (centres undefined), the cell number change was found to be 4.76%. Also, the AC50 under setting [2] is 6.51 µM [falling, single point]. Besides, the AC50 under setting [1] was 6.51 µM [falling, single point].
In the case of `Cc1c(O)ccc(-c2[nH]ncc2-c2nc3ccccc3s2)c1O`, the cell number change was found to be 14.1%. In addition, under setting [2], the AC50 is 0.92 µM [rising, partial curve]. Moreover, the AC50 under setting [1] was 3.26 µM [rising, partial curve].
For `COc1cc(OC)cc(C(=O)N2CCC(C(=O)Nc3ccc4c(c3)OCCO4)CC2)c1`, the cell number change was 35.9%. The AC50 under setting [2] was 8.2 µM [rising, partial curve, poor fit].
On to `Cn1c(-c2ccc(F)cc2)cnc1SCC(=O)N1CCCc2ccccc21`, for which the cell number change worked out at 17.1%.
As to `Cc1c(CN2CCC(C)CC2)c(=O)n(-c2ccccc2)n1C`, the cell number change is -17.5%. In addition, under setting [1], the AC50 was 0.517 µM [falling, full curve, poor fit].
For the compound `Cc1ccccc1-c1nnc(SCC(=O)Nc2ccc3c(c2)OCCO3)n1N`, the cell number change was -1.86%. For the same compound, the concentration at half-maximal activity (AC50) under setting [1] was 0.103 µM [falling, full curve, poor fit].
`Cc1ccc(-c2nnc3sc(-c4ccncc4)nn23)cc1`: the cell number change was -33%. In addition, the AC50 under setting [2] is 0.00517 µM [falling, full curve, poor fit]. In addition, the AC50 under setting [1] is 0.058 µM [rising, full curve, poor fit].
For the compound `CC1CCN(S(=O)(=O)c2ccc(C(=O)OC(C)C(=O)N(C)C3CCCCC3)cc2)CC1` (centres undefined), the cell number change was -21.7%. Besides, the AC50 under setting [1] is 23.1 µM [rising, single point].
Consider `Cc1ccc(C(=O)NCc2ccco2)o1`, for which the cell number change is -9.39%. Also, the AC50 under setting [1] is 0.58 µM [falling, single point].
Consider `CCCOc1ccc(/C=C2/C(=O)ON=C2C)cc1OCC`, for which the cell number change is -0.709%. The AC50 under setting [1] was 29.1 µM [rising, single point].
For `Cc1csc2c(N3CCC(C(=O)O)CC3)ncnc12`, the cell number change stood at 23.3%. In addition, the AC50 under setting [1] is 5.8 µM [rising, full curve, poor fit].
As to `CCC(C)Sc1nc2c(c(=O)[nH]c(=O)n2C)n1CCc1ccccc1` (centres undefined), the cell number change was -40.9%. Under setting [2], the concentration at half-maximal activity (AC50) is 20.6 µM [falling, single point]. For the same compound, the AC50 under setting [1] is 20.6 µM [falling, single point].
`Cc1cc(C)c(OCCN(C)C)c(Cl)c1`: the cell number change was -44.9%. The AC50 under setting [2] was 0.411 µM [falling, full curve]. In addition, the AC50 under setting [1] is 0.206 µM [falling, full curve].
For `COc1cccc(C2=NOC(C(=O)NCc3ccccc3)C2)c1` (centres undefined), the cell number change stood at 44.4%. Further, the AC50 under setting [2] is 9.2 µM [rising, partial curve, poor fit]. Also, the AC50 under setting [1] was 4.61 µM [rising, full curve].
For `O=C(Nc1cccc(Cl)c1)Nc1cnccn1`, the cell number change turned out to be 23.4%. In addition, the AC50 under setting [1] is 3.55 µM [rising, full curve, poor fit].
On to `COc1ccc(/C=C2\SC(=S)N(CCCC(=O)Nc3cc(C)on3)C2=O)cc1OC`, for which the cell number change amounted to 24.2%. Further, the AC50 under setting [2] was 2.31 µM [rising, full curve, poor fit].
Take `O=C(NCc1cccnc1)c1cccc(S(=O)(=O)N2CCCCC2)c1`: the cell number change is -4.89%.
In the case of `Cc1occc1-c1nnc(SCC(=O)NC(C)(C)C)n1C(C)c1ccccc1` (centres undefined), the cell number change was determined as 28.7%. Also, the AC50 under setting [1] was 6.51 µM [rising, single point].
Turning to `CC(=O)NCCc1ccc(C(=O)CSc2nnc(C3CC3)n2C2CC2)cc1`, the cell number change was determined as 22.8%. The AC50 under setting [1] was 29.1 µM [rising, single point].
Consider `Cc1ccc(S(=O)(=O)N(C)c2ccc(OCC(=O)O)cc2)cc1`, for which the cell number change was -16.5%. Under setting [1], the AC50 is 0.00461 µM [falling, full curve, poor fit].
As to `COCCNC(=O)C1Cc2cc(S(=O)(=O)N3CCCC3)ccc2N1C(C)=O` (centres undefined), the cell number change is -12.2%. Also, the AC50 under setting [1] is 29.1 µM [rising, single point].
Regarding `CC(=O)Nc1cc(C(=O)NCc2ccco2)ccc1Sc1ccc(Cl)cc1`, the cell number change turned out to be 31.2%. Further, the AC50 under setting [2] was 13 µM [rising, single point].
Consider `CC(C)[n+]1ccn(C2=C([O-])c3ccccc3C(=O)/C2=N\S(=O)(=O)c2ccccc2)c1`, for which the cell number change was -21.5%. Moreover, the AC50 under setting [1] is 0.92 µM [falling, partial curve].
`CN(Cc1ccccc1)C(=O)c1[nH]cnc1C(=O)Nc1nccs1`: the cell number change came out at 14.2%. Also, under setting [1], the AC50 is 1.03 µM [falling, partial curve].
As to `CCC(=O)Oc1ccc2c(C)cc(=O)oc2c1C`, the AC50 under setting [1] was 1.64 µM [falling, partial curve, poor fit].
For the compound `Cc1cccnc1NC1OC(=O)c2ccccc21` (centres undefined), the cell number change was found to be 8.76%. Besides, under setting [1], the AC50 was 1.46 µM [falling, full curve, poor fit].
For the compound `CC1CCCC(NC(=O)COC(=O)[C@@H](NC(=O)c2ccco2)C(C)C)C1C` (some centres undefined), the cell number change was -22%. Under setting [1], the AC50 was 0.00517 µM [falling, full curve, poor fit].
Regarding `Cc1ccc(OCc2ccc(C(=O)Nc3ccc(S(N)(=O)=O)cc3)o2)cc1`, the cell number change was -11.7%. In addition, under setting [2], the AC50 was 0.651 µM [falling, single point]. The AC50 under setting [1] was 3.26 µM [falling, full curve, poor fit].
Regarding `COc1ccc(NC(=O)/C=C/c2cccc(Br)c2)cn1`, the cell number change is -2.5%. Also, the AC50 under setting [1] is 0.731 µM [rising, single point].
Take `Cc1ccc(/C=N/N2CCN(Cc3ccc(C)cc3)CC2)cc1`: the cell number change was -21.8%. Under setting [1], the AC50 was 29.1 µM [falling, single point].
As for `COc1ccc(NC(=O)CN2CCCN(S(=O)(=O)c3ccc(F)cc3)CC2)cc1`, the cell number change was 18.9%. Under setting [1], the AC50 is 6.51 µM [falling, single point].
Consider `CC(=O)c1ccc(N2CCN(C(=O)COc3ccc(F)cc3)CC2)c(F)c1`, for which the cell number change is -14%.
On to `O=C1CCCc2c1cc(C(=O)NC1CCSC1=O)c(=O)n2-c1ccccc1` (centres undefined), for which the cell number change is -319%. Moreover, the AC50 under setting [2] is 18.4 µM [falling, partial curve].
With `Cc1ccc(CC2SC(=Nc3ccccc3)N(c3ccccc3)C2=O)cc1` (centres undefined), the cell number change was determined as 36.3%. Besides, the AC50 under setting [2] is 13 µM [rising, partial curve]. In addition, the AC50 under setting [1] is 18.4 µM [rising, partial curve].
Consider `Cc1ccc(OCCC(=O)OCC(=O)C(C)(C)C)cc1`, for which the cell number change worked out at 15.2%. In addition, under setting [1], the AC50 was 23.1 µM [rising, single point].
`CC(C)(C)OC(=O)N1CCN(C(=O)c2[nH]cnc2C(=O)Nc2ccon2)CC1`: the cell number change stood at 20.2%. The AC50 under setting [1] is 29.1 µM [falling, single point].
For `COC(=O)c1ccc(-c2csc(NC(=O)c3ccc(S(=O)(=O)N4CCc5ccccc5C4)cc3)n2)cc1`, the cell number change was -0.497%.
As to `C=CCN1CCN(C(=O)c2c(-c3ccccc3)noc2C)CC1`, the cell number change was 0.276%. Moreover, the AC50 under setting [1] was 18.4 µM [rising, single point].
For the compound `C[C@@]12C(=O)N(CC3CCCO3)CC(=O)N1[C@H]1c3ccccc3OC[C@@H]1[C@@H]2c1ccccc1` (some centres undefined), the cell number change was -11.8%. Further, the AC50 under setting [1] was 0.164 µM [rising, full curve, poor fit].
In the case of `O=C(NCc1cccs1)c1nc2ncccn2n1`, the cell number change was determined as 10.6%. Further, the AC50 under setting [1] was 0.146 µM [falling, full curve, poor fit].
Take `Cc1ccc(CNC(=O)c2ccccc2NS(C)(=O)=O)cc1`: the cell number change worked out at 60.1%.
Regarding `COc1ccc(C2=NCCn3nc4cc([N+](=O)[O-])ccc4c32)cc1`, the cell number change was -29%. The AC50 under setting [2] is 0.461 µM [falling, full curve, poor fit]. In addition, the AC50 under setting [1] was 29.1 µM [falling, single point].
For `Cc1nn(CC(=O)Nc2ccccc2)c(=O)c2ccccc12`, the cell number change was -2.83%. Besides, the AC50 under setting [1] is 0.103 µM [rising, full curve, poor fit].
For `Oc1ccc(/C=N/Nc2nc(N3CCCCCC3)nc(N3CCCCCC3)n2)c(O)c1`, the cell number change is -60.2%. Under setting [2], the AC50 is 29.1 µM [falling, single point]. In addition, the AC50 under setting [1] is 20.6 µM [falling, single point].
`NC1=NC[C@@H](Cc2ccc(O)cc2)N1CCc1cccc2ccccc12`: the cell number change is -5.89%. For the same compound, under setting [1], the AC50 was 6.51 µM [falling, single point].

As a reminder, the AC50 is the concentration giving half of the maximal activity seen. A lower AC50 goes with activity at low concentration.
